Assay results: patent US12410152B2, “Oxazole and thioazole-type cullin ring ubiquitin ligase compounds and uses thereof” (Proxygen GmbH, priority 2019, dated 2025)
This continues a long series; more values of the same kind are listed elsewhere.

System: KBM7 WT cells (global proteome)
Test: Quantitative expression proteomics (TMT isobaric tagging), drug vs DMSO
Assay type: cell-based, human
Excerpt: The mechanism by which the assayed molecules re-program a functional CRL4B complex based on the data shown could be that drug binding to CUL4B recruits a neo-substrate directly to the cullin backbone. Alternatively, drug binding could stabilize CUL4B function to boost time intervals where a functionally competent CUL4B complexes can be formed. Here, the word “functional” implies that the CUL4B backbone of this complex needs to be neddylated, and a CUL4B associated E2 ubiquitin-conjugating enzyme (UBE2G1) needs to be bound. FIG. 9 outlines one possible mechanism. Both predicted mechanisms of action would result in a functionally altered CRL4B complex, and thus an altered stability of drug-induced (neo-) substrates. In order to identify target proteins with a decreased abundance or, in other words, target proteins that become degraded by CRL4B after drug treatment, global proteome composition was measured using quantitative expression proteomics (TMT-labeling). In brief, KBM7 cells were drug treated for 12 hours, lysed, and subjected to isobaric tagging. Ensuing proteomics analysis quantified a total of 7,903 proteins at a minimum spectral count of 2. […] Data on essentiality are taken from Hart et al., G3, August 2017 (PMID: 28655737).
50×10^6 KBM7^WT cells per condition were collected, washed four times with ice-cold PBS, the supernatant aspirated and pellets snap-frozen in liquid N2. Each washed cell pellet was lysed separately in 40 μL of freshly prepared lysis buffer as previously described (see Mayor-Ruiz et al., Mol Cell 2019)
Offline Fractionation via RP-HPLC at high pH and 2D-RP/RP Liquid Chromatography Mass Spectrometry were performed as previously described (see Mayor-Ruiz et al., Mol Cell 2019).
Acquired raw data files were processed using the Proteome Discoverer 2.2.0 platform, utilizing the Sequest HT database search engine and Percolator validation software node (V3.04) to remove false positives with a false discovery rate (FDR) of 1% on peptide and protein level under strict conditions. Searches were performed with full tryptic digestion against the human SwissProt database v2017.06 with up to two allowed miscleavage sites. Oxidation (+15.9949 Da) of methionine was set as variable modification, whilst carbamidomethylation (+57.0214 Da) of cysteine residues and TMT 6-plex labelling of peptide N-termini and lysine residues were set as fixed modifications. Data was searched with mass tolerances of ±10 ppm and ±0.02 Da on the precursor and fragment ions, respectively. Results were filtered to include peptide spectrum matches (PSMs) with Sequest HT cross-correlation factor (Xcorr) scores of […] and high peptide confidence assigned by Percolator. MS^2 signal-to-noise values (S/N) values of TMT reporter ions were used to estimate peptide/protein abundance changes. PSMs with precursor isolation interference values of ≥ 50% and average TMT-reporter ion S/N≤10 were excluded from quantitation. Only unique peptides were used for TMT quantitation as well as for TOP3 label-free quantitation. Isotopic impurity correction and TMT channel-normalization based on total peptide amount were applied. For statistical analysis and p-value calculation, the integrated ANOVA hypothesis test was used. TMT ratios with p-values below 0.01 were considered as significant. Only proteins with >1 peptide detected and >1 unique peptide detected were considered for further analysis. For the calling of destabilized proteins, a log 2 fold change threshold (drug/DMSO) of −0.3 was applied.
Comparison of overall proteome-wide changes in KBM7 cells treated with IC020772.1 (2.5 μM), IC021313.2 (7 μM) or T6938051 (3.5 μM) for 5 h and 12h, using quantitative proteomics based on isobaric tagging.
The protein names in Table 4, Table 5 and Table 6 refer to the protein names as provided by HUGO Gene Nomenclature Committee (HGNC) database. […]

O=C(CSc1nnc2c(n1)[nH]c1ccccc12)Nc1ccc(Cl)cn1 [IC020772.1]
log2FC (IC020772.1/DMSO) (FAM173B (Q6P4H8-1)): −0.4364 | log2FC (IC020772.1/DMSO) (FAM193B (Q96PV7-1)): −0.3383 | log2FC (IC020772.1/DMSO) (FBN2 (P35556-1)): −0.3437 | log2FC (IC020772.1/DMSO) (FBXO11 (Q86XK2-5)): −0.484 | log2FC (IC020772.1/DMSO) (FBXO28 (Q9NVF7-1)): −0.662 | log2FC (IC020772.1/DMSO) (FBXO38 (Q6PU6-1)): −0.8135 | log2FC (IC020772.1/DMSO) (FEM1A (Q9BSK4)): −1.155 | log2FC (IC020772.1/DMSO) (FOPNL (Q96NB1-1)): −0.3401 | log2FC (IC020772.1/DMSO) (FSTL1 (Q12841-1)): −0.873 | log2FC (IC020772.1/DMSO) (FZD6 (O60353-1)): −0.48 | log2FC (IC020772.1/DMSO) (GALNT6 (Q8NCL4)): −0.3659 | log2FC (IC020772.1/DMSO) (GBGT1 (Q8N5D6-1)): −0.8314 | log2FC (IC020772.1/DMSO) (GCNT1 (Q02742)): −0.4422 | log2FC (IC020772.1/DMSO) (GEN1 (Q17RS7)): −0.4403 | log2FC (IC020772.1/DMSO) (GFRA1 (P56159-1)): −0.3364 | log2FC (IC020772.1/DMSO) (GGNBP2 (Q9H3C7-1)): −0.8783 | log2FC (IC020772.1/DMSO) (GINM1 (Q9NU53)): −0.4501 | log2FC (IC020772.1/DMSO) (GINS4 (Q9BRT9-1)): −0.3752 | log2FC (IC020772.1/DMSO) (GLIPR1 (P48060-1)): −0.4112 | log2FC (IC020772.1/DMSO) (GLRX2 (Q9NS18-2)): −0.662 | log2FC (IC020772.1/DMSO) (GNL3L (Q9NVN8)): −0.3959 | log2FC (IC020772.1/DMSO) (GOLPH3L (Q9H4A5-1)): −0.3419 | log2FC (IC020772.1/DMSO) (GPBPILl (Q9HC44)): −0.6597 | log2FC (IC020772.1/DMSO) (GPKOW (Q92917)): −0.3437 | log2FC (IC020772.1/DMSO) (GPSM2 (P81274)): −0.8059 | log2FC (IC020772.1/DMSO) (GSKIP (Q9P0R6)): −0.3733 | log2FC (IC020772.1/DMSO) (GTPBP10 (A4D1E9-1)): −0.48 | log2FC (IC020772.1/DMSO) (HAUS7 (Q99871-2)): −0.4521 | log2FC (IC020772.1/DMSO) (HCLS1 (P14317-1)): −0.3201 | log2FC (IC020772.1/DMSO) (HECTD4 (Q9Y4D8-5)): −0.3733 | log2FC (IC020772.1/DMSO) (HELLS (Q9NRZ9-1)): −0.4093 | log2FC (IC020772.1/DMSO) (HERPUD1 (Q15011-1)): −0.8546 | log2FC (IC020772.1/DMSO) (HIF1AN (Q9NWT6)): −0.4422 | log2FC (IC020772.1/DMSO) (HIKESHI (Q53FT3)): −0.3383 | log2FC (IC020772.1/DMSO) (HMMR (O75330-3)): −0.9518 | log2FC (IC020772.1/DMSO) (HS6ST1 (O60243-1)): −0.484 | log2FC (IC020772.1/DMSO) (ICE1 (Q9Y2F5)): −0.3383 | log2FC (IC020772.1/DMSO) (IFRD2 (Q12894-2)): −0.3346 | log2FC (IC020772.1/DMSO) (IRF2 (P14316-1)): −0.484 | log2FC (IC020772.1/DMSO) (IRF7 (Q92985-4)): −0.3383 | log2FC (IC020772.1/DMSO) (ITGA4 (P13612-1)): −0.4364 | log2FC (IC020772.1/DMSO) (IVNS1ABP (Q9Y6Y0)): −0.662 | log2FC (IC020772.1/DMSO) (JADE1 (Q6IE81-1)): −0.9324 | log2FC (IC020772.1/DMSO) (JMJD4 (Q9H9V9-1)): −0.3346 | log2FC (IC020772.1/DMSO) (JPH1 (Q9HDC5)): −0.4501 | log2FC (IC020772.1/DMSO) (JUND (P17535)): −0.3659 | log2FC (IC020772.1/DMSO) (KAT14 (Q9H8E8-1)): −0.3696 | log2FC (IC020772.1/DMSO) (KAZN (Q674X7-1)): −0.3437 | log2FC (IC020772.1/DMSO) (KCNQ5 (Q9NR82-6)): −0.4461 | log2FC (IC020772.1/DMSO) (KCT2 (Q8NC54)): −0.811 | log2FC (IC020772.1/DMSO) (KCTD3 (Q9Y597-1)): −0.4759 | log2FC (IC020772.1/DMSO) (KCTD5 (Q9NXV2)): −0.8288 | log2FC (IC020772.1/DMSO) (KCTD20 (Q7Z5Y7-1)): −0.48 | log2FC (IC020772.1/DMSO) (KDM4A (O75164-1)): −0.4501 | log2FC (IC020772.1/DMSO) (KIAA0754 (O94854-1)): −0.7084 | log2FC (IC020772.1/DMSO) (KIAA1143 (Q96AT1)): −0.4501 | log2FC (IC020772.1/DMSO) (KIAA1524 (Q8TCG1-1)): −0.4442 | log2FC (IC020772.1/DMSO) (KIF18B (Q86Y91-2)): −0.4035 | log2FC (IC020772.1/DMSO) (KLHDC2 (Q9Y2U9-1)): −0.8546 | log2FC (IC020772.1/DMSO) (KLHL26 (Q53HC5)): −0.3364 | log2FC (IC020772.1/DMSO) (KNSTRN (Q9Y448-1)): −1.184 | log2FC (IC020772.1/DMSO) (LRIF1 (Q5T3J3-1)): −0.3959 | log2FC (IC020772.1/DMSO) (LRR1 (Q96L50-1)): −0.6758 | log2FC (IC020772.1/DMSO) (LSM1 (O15116)): −0.4461 | log2FC (IC020772.1/DMSO) (LTV1 (Q96GA3)): −0.6689 | log2FC (IC020772.1/DMSO) (MAX (P61244-1)): −0.3733 | log2FC (IC020772.1/DMSO) (MBP (P02686-1)): −0.9241 | log2FC (IC020772.1/DMSO) (MED30 (Q96HR3-1)): −0.3771 | log2FC (IC020772.1/DMSO) (MEF2C (Q06413-1)): −0.3978 | log2FC (IC020772.1/DMSO) (METTL2B (Q6P1Q9-1)): −0.3752 | log2FC (IC020772.1/DMSO) (METTL6 (Q8TCB7-1)): −0.3959 | log2FC (IC020772.1/DMSO) (MGAT5 (Q09328)): −0.3752 | log2FC (IC020772.1/DMSO) (MIER3 (Q7Z3K6-2)): −0.4016 | log2FC (IC020772.1/DMSO) (MLC1 (Q15049-1)): −0.811 | log2FC (IC020772.1/DMSO) (MPP5 (Q8N3R9-1)): −0.3752 | log2FC (IC020772.1/DMSO) (MTERF1 (Q99551)): −0.3437 | log2FC (IC020772.1/DMSO) (MTG1 (Q9BT17-1)): −0.3696 | log2FC (IC020772.1/DMSO) (MTIM (Q8N339)): −0.3789 | log2FC (IC020772.1/DMSO) (MTO1 (Q9Y2Z2-6)): −0.3771 | log2FC (IC020772.1/DMSO) (MYB (P10242-4)): −0.4112 | log2FC (IC020772.1/DMSO) (MZT1 (Q08AG7)): −0.4035 | log2FC (IC020772.1/DMSO) (NABP1 (Q96AH0-1)): −0.6967 | log2FC (IC020772.1/DMSO) (NDE1 (Q9NXR1-1)): −0.364 | log2FC (IC020772.1/DMSO) (NOL7 (Q9UMY1-1)): −0.3364 | log2FC (IC020772.1/DMSO) (NOP10 (Q9NPE3)): −0.3959 | log2FC (IC020772.1/DMSO) (NOP53 (Q9NZM5)): −0.7084 | log2FC (IC020772.1/DMSO) (NRP1 (O14786-1)): −0.4074 | log2FC (IC020772.1/DMSO) (NRROS (Q86YC3)): −0.8443 | log2FC (IC020772.1/DMSO) (NSA2 (O95478)): −0.6689 | log2FC (IC020772.1/DMSO) (NUMA1 (Q14980-2)): −0.3715 | log2FC (IC020772.1/DMSO) (NUPL2 (O15504-1)): −0.3752 | log2FC (IC020772.1/DMSO) (OAS1 (P00973-3)): −0.881
